# Assay results published in patent US20090247466A1, “NEUROPROTECTIVE INTEGRIN-BINDING PEPTIDE AND ANGIOPOIETIN-1 TREATMENTS” (University of Louisville Research Foundation, priority 2008, published 2009).
# Where “and” joins values, the source holds several entries; their conditions need not be identical. Identical values can stand only once. At least one peptide structure holds a part that was inferred or is arguable (an end, a ring closure or a residue). Ends that are not written are not given here.
# What was measured:
# [1] = tested on: C57BL/6 mice with spinal cord contusion at T9; experiment: Perfused (LEA lectin-labeled) blood vessels in the injury penumbra after spinal cord contusion; assay type: in vivo
# αvβ3 and α5β1 integrins = conditions: not α1, α2, α3, α6, β4, αvβ5; cited from earlier work
# [2] = tested on: mice with IRBP-induced uveitis; experiment: Uveitis induced by IRBP protein injection; assay type: in vivo; conditions: tail vein injections days 2-9 after IRBP injection, three mice
sequence,measurement,setting,value
"KAFDITYVRLKF [C16, KAFDITYVRLKF (SEQ ID NO:2)]","number of LEA-positive blood vessels in the penumbral regions, of sham/normal mice","[1]; daily i.v. treatment, at 7 days",75±1%
same,"number of LEA-positive blood vessels in the penumbra, of sham","[1]; single i.v. injection immediately after injury, 24 hours",44±4% and 44%
same,number of LEA-positive blood vessels,"[1]; treated for 14 days, analyzed at 6 weeks following injury",51±6
same,integrin binding selectivity,αvβ3 and α5β1 integrins,bind only to αvβ3 and α5β1 integrins
same,inflammation in histological sections through the eye,[2],"did not, or only mildly in one case, show inflammation"
same,eyes as determined by fundoscopy,[2]; two weeks,clear eyes throughout the two weeks
